Values quoted from earlier work as cited in patent publication US20030138432A1, “Selective cellular targeting: multifunctional delivery vehicles, multifunctional prodrugs, use as antineoplastic drugs” (Drug Innovation & Design, Inc., priority 1999, published 2003).
Where two headings read alike, the source gives them in different places. At least one structure is not confirmed: it was looked up by name or label, or the drawing left a doubt.

How the values were obtained:
[1] = cited from earlier work
[2] = cited from earlier work; remark: listed apart in the source

SMILES	cytotoxic concentration [1]	cytotoxic concentration [2]
CC[C@H](C)[C@H]1NC(=O)[C@@H](NC(=O)[C@@H](CC(C)C)N(C)C(=O)[C@@H]2CCCN2C(=O)C(C)O)[C@@H](C)OC(=O)[C@H](Cc2ccc(OC)cc2)N(C)C(=O)[C@@H]2CCCN2C(=O)[C@H](CC(C)C)NC(=O)[C@@H](C)C(=O)[C@H](C(C)C)OC(=O)C[C@@H]1O (some centres unmarked) [Didemnin B]	nanomolar to sub-nanomolar concentrations	–
COc1cc2c(cc1O)CCN[C@]21CS[C@@H]2c3c(OC(C)=O)c(C)c4c(c3[C@H](COC1=O)N1[C@@H]2[C@H]2c3c(cc(C)c(OC)c3O)C[C@@H]([C@@H]1O)N2C)OCO4 [Ecteinascidin 743]	–	picomolar concentrations
